This note sets out measurements from PMC5998136.

Amino acid sequences for entries named in this document (tags omitted).
UniProt P26040: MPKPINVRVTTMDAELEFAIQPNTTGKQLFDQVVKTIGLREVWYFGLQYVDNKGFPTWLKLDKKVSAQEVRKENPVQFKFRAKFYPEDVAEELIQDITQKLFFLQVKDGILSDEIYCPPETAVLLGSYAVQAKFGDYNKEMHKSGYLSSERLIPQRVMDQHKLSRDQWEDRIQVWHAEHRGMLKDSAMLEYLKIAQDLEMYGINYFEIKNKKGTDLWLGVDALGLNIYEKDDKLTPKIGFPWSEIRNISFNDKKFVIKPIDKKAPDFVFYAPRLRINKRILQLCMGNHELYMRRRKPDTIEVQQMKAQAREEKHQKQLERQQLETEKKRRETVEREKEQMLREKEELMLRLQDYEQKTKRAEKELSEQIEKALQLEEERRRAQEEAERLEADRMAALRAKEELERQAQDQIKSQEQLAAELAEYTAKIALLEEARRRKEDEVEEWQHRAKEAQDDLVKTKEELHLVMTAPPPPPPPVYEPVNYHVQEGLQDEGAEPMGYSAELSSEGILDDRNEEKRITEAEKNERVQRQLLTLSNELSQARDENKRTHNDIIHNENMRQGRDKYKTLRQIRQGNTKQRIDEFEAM

These are yes or no findings as the source states them, for the method shown. In cells and extracts the contact can be indirect. These calls come from enrichment with a bait or labelling near it, and not all partners need be listed.

For the experiment, the target named is T1, Na+/H+ exchanger regulatory factor-1 (mouse (endogenous in mouse liver)) (UniProt P70441).
T1 sequence: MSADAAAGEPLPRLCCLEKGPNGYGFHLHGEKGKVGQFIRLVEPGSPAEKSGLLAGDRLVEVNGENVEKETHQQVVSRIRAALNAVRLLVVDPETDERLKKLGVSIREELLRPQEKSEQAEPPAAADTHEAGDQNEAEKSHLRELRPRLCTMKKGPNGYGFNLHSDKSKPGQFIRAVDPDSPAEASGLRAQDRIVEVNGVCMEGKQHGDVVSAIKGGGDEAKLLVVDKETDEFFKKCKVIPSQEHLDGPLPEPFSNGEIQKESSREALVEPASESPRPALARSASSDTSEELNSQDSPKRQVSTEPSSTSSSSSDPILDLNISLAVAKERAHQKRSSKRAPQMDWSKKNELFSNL
The experiment in a line: affinity purification with mass spectrometry; hepatic membrane fractions of wild-type mice at ZT6 and ZT18; IP with anti-NHERF1 antibodies, SDS-PAGE with negative gel stain, bands cut and analysed by nano-LC-MS/MS.

Take EZRIN (from UniProt P26040 1-586): the binding entry was “binds”.

B1: fatty acid transport protein-5 (protein, UniProt Q4LDG0 1-689)
chain: MGIWKKLTLLLLLLLLVGLGQPPWPAAMALALRWFLGDPTCLVLLGLALLGRPWISSWMPHWLSLVGAALTLFLLPLQPPPGLRWLHKDVAFTFKMLFYGLKFRRRLNKHPPETFVDALERQALAWPDRVALVCTGSEGSSITNSQLDARSCQAAWVLKAKLKDAVIQNTRDAAAILVLPSKTISALSVFLGLAKLGCPVAWINPHSRGMPLLHSVRSSGASVLIVDPDLQENLEEVLPKLLAENIHCFYLGHSSPTPGVEALGASLDAAPSDPVPASLRATIKWKSPAIFIFTSGTTGLPKPAILSHERVIQVSNVLSFCGCRADDVVYDVLPLYHTIGLVLGFLGCLQVGATCVLAPKFSASRFWAECRQHGVTVILYVGEILRYLCNVPEQPEDKIHTVRLAMGNGLRANVWKNFQQRFGPIRIWEFYGSTEGNVGLMNYVGHCGAVGRTSCILRMLTPFELVQFDIETAEPLRDKQGFCIPVEPGKPGLLLTKVRKNQPFLGYRGSQAESNRKLVANVRRVGDLYFNTGDVLTLDQEGFFYFQDRLGDTFRWKGENVSTGEVECVLSSLDFLEEVNVYGVPVPGCEGKVGMAAVKLAPGKTFDGQKLYQHVRSWLPAYATPHFIRIQDSLEITNTYKLVKSRLVREGFDVGIIADPLYILDNKAQTFRSLMPDVYQAVCEGTWNL
Regarding B1, the binding result is given as “binds”.
